Experimental data: PubChem BioAssay AID1671195 (Yale University, 2021)
Assay: 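Regulators of LDL receptor activity judged by labelled LDL uptake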 (primary screen). System: human Huh7 hepatoma cells. Reagents: siRNA pool against human genes, 18 nM. Time to read-out: about 2 to 2.5 days of knockdown, then 8 h LDL uptake. Challenge: DiI-labelled LDL at 30 µg/ml for 8 h, in lipoprotein-deficient serum medium. Measured: 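Fluorescent LDL signal imaged in cells, scaled to the plate median, robust z-score for each replicate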. Reading the numbers: robust z-score: higher = more LDL uptake after knockdown. Hit rule: 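a gene counts as active if at least two replicate z-scores exceed ±2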.
This is one part, drawn at random, of about 22,000 reagents. About 1,510 of them (6.9%) count as active. 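Active includes knockdowns raising or lowering LDL uptake; positive z-scores mean more uptake, negative mean less.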 Reagents against one gene are numbered here.

no.	gene	reagent no.	robust z-score, replicate 1	robust z-score, replicate 2	robust z-score, replicate 3	call
1	TEX15	1	-0.62	0.923	-0.854	inactive
2	POP5	1	-0.615	-0.369	-0.671	inactive
3	CLDN16	1	-0.131	-0.351	0.192	inactive
4	PRMT9	1	-0.361	-0.443	-0.0278	inactive
5	RRAD	1	-0.441	-1.99	-0.873	inactive
6	UNC45A	1	1.26	-0.594	1.09	inactive
7	OTOA	1	1.28	0.714	0.97	inactive
8	HDHD3	1	1.72	1.64	1.66	inactive
9	NPPB	1	2.48	1.56	0.517	inactive
10	IFI44	1	0.804	1.23	0.234	inactive
11	IL36A	1	-0.826	1.63	0.88	inactive
12	C2CD4C	1	1.63	1.71	2.14	inactive
13	ZNF768	1	-1.08	-1.18	-0.682	inactive
14	BMP6	1	0.359	1.95	0.459	inactive
15	SNCB	1	-0.396	0.684	-0.167	inactive
16	TXNDC17	1	-0.368	-0.897	-0.818	inactive
17	MYL12BP2	1	2.1	-0.0138	0.975	inactive
18	SLC38A7	1	-0.782	1.12	-0.738	inactive
19	UQCC2	1	0.602	1.06	0.411	inactive
20	PDIA4	1	-0.0723	0.241	-0.278	inactive
21	SLIT3	1	3.04	1.54	0.64	inactive
22	ECHDC3	1	-0.0428	-0.653	0.178	inactive
23	ECM1	1	0.399	-0.69	0.184	inactive
24	TFRC	1	-0.499	-0.834	-0.967	inactive
25	UBAP2L	1	-1.08	-0.0142	-1.7	inactive
26	CATSPERT	1	0.508	0.0407	-0.152	inactive
27	S100A5	1	0.0405	-0.164	-0.296	inactive
28	CEP57L1	1	-1.05	-1.02	-0.882	inactive
29	ERO1A	1	0.0511	-0.796	-0.284	inactive
30	LRRC55	1	0.74	0.304	-0.2	inactive

Laid out differently: 4 of the entries above
PDIA4
- robust z-score, replicate 1: -0.0723
- robust z-score, replicate 2: 0.241
- robust z-score, replicate 3: -0.278
- call: inactive

SLIT3
- robust z-score, replicate 1: 3.04
- robust z-score, replicate 2: 1.54
- robust z-score, replicate 3: 0.64
- call: inactive

ECHDC3
- robust z-score, replicate 1: -0.0428
- robust z-score, replicate 2: -0.653
- robust z-score, replicate 3: 0.178
- call: inactive

ECM1
- robust z-score, replicate 1: 0.399
- robust z-score, replicate 2: -0.69
- robust z-score, replicate 3: 0.184
- call: inactive

Further entries follow:
no.	gene	reagent no.	robust z-score, replicate 1	robust z-score, replicate 2	robust z-score, replicate 3	call
31	RNF152	1	-0.729	-1.67	-0.962	inactive
32	SH3BP1	1	0.559	0.614	0.979	inactive
33	CPXM2	1	-1.09	-1.57	-1.05	inactive
34	MREG	1	-1.63	0.478	-0.263	inactive
35	RIPOR2	1	-0.641	0.388	-0.65	inactive
36	EIF3A	1	0.379	2.54	0.649	inactive
37	TTC21B	1	0.164	0.451	-0.197	inactive
38	INTS9	1	-0.531	-2.55	-0.791	inactive
39	EMCN	1	0.674	0.609	1.31	inactive
40	KCNJ3	1	0.849	-0.124	1.31	inactive
41	PAQR9	1	-0.547	-0.593	-0.736	inactive
42	GRAP	1	-0.284	0.689	0.385	inactive
43	RPP14	1	-0.672	-1.29	-0.675	inactive
44	MAP3K5	1	0.998	2.71	2.63	active
45	GPR4	1	0.978	1.15	0.63	inactive
46	BLK	1	-0.887	-1.45	-1.12	inactive
47	RSPH1	1	0.385	0.704	1.06	inactive
48	IER3	1	-1.28	-0.547	-0.98	inactive
49	IRF1	1	-0.0611	-0.0997	-0.292	inactive
50	NUP107	1	4.78	4.76	6.27	active
51	RBPMS	1	-0.533	-0.661	-1.14	inactive
52	OR52B2	1	-0.0248	0.123	0.088	inactive
53	IFT56	1	-0.121	-0.0156	-0.0243	inactive
54	COL6A3	1	-1.69	-1.59	-1.36	inactive
55	PROCR	1	1.02	0.00893	-0.964	inactive
56	TXNDC9	1	0.612	-0.143	0.0897	inactive
57	HOXD13	1	-0.58	-0.0528	-0.304	inactive
58	PURPL	1	-0.336	-0.153	-0.187	inactive
59	EMID1	1	-0.184	-0.09	0.624	inactive
60	BSN	1	1.57	-0.885	-0.527	inactive
61	PHYHIPL	1	-0.933	-0.515	-0.0626	inactive
62	DNM1P5	1	-0.529	-3.32	-0.638	inactive
63	RPL22P13	1	0.0326	-0.124	0.297	inactive
64	HS3ST3B1	1	0.515	1.39	0.541	inactive
65	VN1R17P	1	-0.831	-0.852	-0.889	inactive
66	IGF2	1	0.255	-0.282	-0.074	inactive
67	IGF2	2	-1.67	-1.87	-1.52	inactive
68	RNASEK	1	-0.982	-1.13	-0.829	inactive
